Article PMC3231483
Construct, isoform or probe ends are uncertain for at least one entry.

Tested on: thrombin (human)
Assay: binding assay
Conditions: 5' NH2; Aptamer immobilized from 1 uM in PBS; assay buffer; commercial protein; folded or branched DNA

AGTCCGTGGTAGGGCAGGTTGGGGTGACT [29-mer thrombin aptamer (TBA)]
Kd: 0.5 nM
